Among the data in article PMC9119445, “Ustilago maydis telomere protein Pot1 harbors an extra N-terminal OB fold and regulates homology-directed DNA repair factors in a dichotomous and context-dependent manner” are binding values, retold here.

Results are given in words; binding and its absence hold for the method and conditions named. A result given as binding can be weak or reduced; the word gives no strength.

Test [1] concerns the target Pot1 OB-N domain fragment, FLAG-tagged (U. maydis). Nature of the test: pull-down; Pot1-FLAG (or FLAG-tagged truncation variant) immobilised on anti-FLAG resin; 1 μM purified Rad51 or MBP-Brh2/DSS1 complex; 4°C, 1 h, FLAG(65) buffer (50 mM Tris-HCl pH 7.5, 65 mM NaCl, 10% glycerol, 0.1% NP-40, 2.5 mM MgCl2, 1 mM DTT); washes at 100 mM NaCl; elution with FLAG3 peptide; Western blot (anti-Rad51, anti-MBP, anti-FLAG); also with Benzonase (no effect); both purified.

In test [2] the target is Ustilago maydis Pot1 with a C-terminal FLAG tag (Pot1-FLAG) (U. maydis). The description is as above.

B1: Ustilago maydis Rad51 (protein, UniProt Q99133 1-339)
chain: MSQNAQDPAQIGEDDMGEAFGPLPVSKLEEFGISSSDCKKLAESGYNTVESIAFTPKKQLLLVKGVSEAKADKILAEAARLVPMGFTTATEFHARRNELISITTGSKNLDAILGGGMETGSITELYGEFRTGKSQLCHTLAVTCQLPVDMGGGEGKCLYIDTENTFRPTRLLAVAERFGLNGEEVLDNVAYARAYNADHQLQLLMQASAMMAESRFSLLIVDSLTSLYRTDFSGRGELSARQMHLAKFLRGLMRLADEFGVAVVITNQVVAQVDGATAFTADAKKPIGGNIVAHASTTRLSLRKGRGNQRICRIADSPCLPEADAVFAIGPEGIIDPVD
B1: the binding entry in test [1] and in test [2] was “binds” each time.
